Experimental data from US8192734B2, “Compositions and methods for bone strengthening” (Cornell University, priority 2007, dated 2012).

Assay: Expt 1: body weight and plasma measures
Type: in vivo, pig
Settings: BD + phytase 2,000 U/kg, 6 wk

B1: Phytase: Escherichia coli AppA2 phytase (OptiPhos, JBS United, Inc.), added to diets at feed mixing; AppA2 is SEQ ID NO: 2 (protein, listed as Escherichia coli)
chain: MKAILIPFLSLLIPLTPQSAFAQSEPELKLESVVIVSRHGVRAPTKATQLMQDVTPDAWPTWPVKLGWLTPRGGELIAYLGHYQRQRLVADGLLAKKGCPQPGQVAIIADVDERTRKTGEAFAAGLAPDCAITVHTQADTSSPDPLFNPLKTGVCQLDNANVTDAILSRAGGSIADFTGHRQTAFRELERVLNFSQLNLCLNREKQDESCSLTQALPSELKVSADNVSLTGAVSLASMLTEIFLLQQAQGMPEPGWGRITDSHQWNTLLSLHNAQFYLLQRTPEVARSRATPLLDLIMAALTPHPPQKQAYGVTLPTSVLFIAGHDTNLANLGGALELNWTLPGQPDNTPPGGELVFERWRRLSDNSQWIQVSLVFQTLQQMRDKTPLSLNTPPGEVKLTLAGCEERNAQGMCSLAGFTQIVNEARIPACSL
body weight at the end of the experiment: 33.4 ± 0.8 kg
plasma alkaline phosphatase activity at the end of the experiment: 173.0±6.8 U/L
plasma inorganic P concentration at the end of the experiment: 83.6 ± 0.1 g/L
